Assay results taken from paper PMC10716581.
The exact form of at least one protein or probe is not confirmed. At least one verdict rests on a figure or table, not on a statement of the authors.

Amino acid sequences for entries named in this document (tags omitted).
UniProt Q06609, whole entry: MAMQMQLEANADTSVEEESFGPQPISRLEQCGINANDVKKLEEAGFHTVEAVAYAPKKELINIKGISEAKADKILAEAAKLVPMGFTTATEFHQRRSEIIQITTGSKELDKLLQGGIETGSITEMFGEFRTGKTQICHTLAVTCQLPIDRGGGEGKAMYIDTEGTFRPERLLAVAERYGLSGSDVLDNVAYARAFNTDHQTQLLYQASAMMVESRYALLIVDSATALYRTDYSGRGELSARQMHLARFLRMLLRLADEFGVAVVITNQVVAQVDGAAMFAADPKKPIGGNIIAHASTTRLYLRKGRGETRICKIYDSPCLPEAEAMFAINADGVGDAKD

Biological target: RAD51 WT (human) (UniProt Q06609)
Assay: EMSA
Conditions: 2 mM AMP-PNP, 10 mM Mg2+; 20 mM Hepes-NaOH pH 7.5, 0.1 mg/ml BSA, 1 mM DTT, 10 mM MgCl2, 150 mM KCl, 2 mM ATP or AMP-PNP or no nucleotide, 2.7 uM (nt) DNA, 37 C 10 min; 8% native PAGE in 1x TBE; recombinant protein; protein details: N-terminal His-tag removed with thrombin; label: 5'-Cy5 on strand 1

Sequence: TAATACAAAATAAGTAAATGAATAAACAGAGAAAATAAAG (double strand) [Cy5-OL4/OL5 40-mer]
- binding result: binds
